## Primary screen of a compound library

Source: ChEMBL document CHEMBL3988442, “University of Dundee, Small-Polar-MMV Screening Library” (2021).

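Phenotypic screen: M. tuberculosis growth, cholesterol and DPPC medium, 4 days; the read-out is not stated. Tested at 50 µM. Direction is inferred from retests: higher values go with more growth inhibition. Of about 69,000 compounds tested this way, about 370 (0.54%) reached 50% or more in at least one test.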

Each number is a percent effect as filed.
The controls that fix the scale are not given in the record; negative values are as filed.
Compounds were drawn at random from those tested, without regard to their results.
Two or more numbers in one place are separate tests of the same structure; such repeats can differ widely.

- CC(=O)N1Cc2ccccc2C[C@H]1C(=O)Nc1ccccn1 : 0.4301%
- Cc1ncsc1CCC(=O)NC1CCN(Cc2cccs2)CC1 : 14.22%
- CC(Cn1cccn1)NCc1csc(-c2ccccc2F)n1 (centres undefined) : 38.4%
- COC(=O)CN(C(=O)c1cccc(F)c1Cl)c1cccc(C)n1 : -14.96%
- CC(C)=CCS(=O)(=O)Cc1nc(C(C)C)no1 : 23.96%
- CN(C)C1(CNc2ncc(Br)cn2)CCOCC1 : 16.15%
- COCc1n[nH]c2c1CN(C(=O)c1ccncc1)C2.O=C(O)C(F)(F)F : 2.841%
- Cc1c(C(=O)NC2CCCOC2)nnn1-c1ccc(Cl)cc1F (centres undefined) : 13.03%
- O=C(c1cccc(NCCOc2ccc(F)cc2)c1)N1CCOCC1 : -11.98%
- Cc1cnc(N2CCCC3(CCN(Cc4csc(C)n4)C3=O)C2)nc1.O=C(O)C(F)(F)F.O=C(O)C(F)(F)F (centres undefined) : 3.397%
- O=C(NCCO)NCC(c1ccccc1)N1CCc2sccc2C1 (centres undefined) : -2.833%
- O=C(Cc1cccs1)Nc1cnn(C2CCOC2)c1 (centres undefined) : 71.81%
- c1ccc(-c2nnc([C@H]3CCN(C4CCC4)C3)o2)cc1 : 30.55%
- O=C(O)C(F)(F)F.[H][C@@]12CCN(C(=O)CC(C)C)CC[C@]1(C(=O)Nc1ccccc1)CCN2C : -21.89%
- CCCn1ccnc1CN1CCC(Oc2cccc(F)c2)(C(=O)O)CC1 : 23.63%
- COc1ccccc1NC(=O)CSC1CCc2ccccc2NC1=O (centres undefined) : -10.34%
- Cn1cc(-c2nnn3c2COC(CNCc2ccccn2)C3)cn1 (centres undefined) : -20.99%
- O=C1NCCCc2[nH]c(Cc3cccc(Cl)c3)nc21 : -19.13%
- CCN(Cc1cccs1)S(=O)(=O)N(C)C(C)C : -1.93%
- O=C(NCCCNc1ccc(C(F)(F)F)cn1)c1ccc2c(c1)OCO2 : 11.26%
- COc1cc(C(=O)NC(C)c2cccs2)cc2c1OCCO2 (centres undefined) : -8.639%
- [H][C@]12CCN(Cc3ccco3)[C@@]1([H])CC[C@H](COCC1CCOCC1)O2 : 2.606%
- COc1ccc(OC)c(C2CCN(C(=O)C3CCOCC3)C2)c1 (centres undefined) : -7.555%
- COc1cc(C2SC(C)=Nc3c2c(=O)[nH]n3C2CCCC2)ccc1O (centres undefined) : 5.238%
- O=C1CC2(CCN(c3nncs3)C2)CN1c1cncnc1 (centres undefined) : 19.88%
- O=C(O)C(F)(F)F.O=C1COC2(COCCN(Cc3ccsc3)C2)CN1c1ccc(F)cc1 (centres undefined) : -20.68%
- CCCc1nnc(N(C)CC2CCCN(CC)C2)o1 (centres undefined) : -41.77%
- CCc1oc(C(=O)N2CCC(N(CC)C(C)=O)C2)cc1CN(CC)CC (centres undefined) : 13.66%
- CCCNC(=O)c1ccc(S(=O)(=O)NC2(COC)CCCC2)cc1 : 0.5181%
- Cn1cc(CN2CCc3c(COCC4CC4)cncc3C2)cn1.O=C(O)C(F)(F)F.O=C(O)C(F)(F)F : -31.63%
- CC(=O)N1CC(=O)N(c2cnn(C)c2)CC12CCN(Cc1nccs1)C2 (centres undefined) : 10.06%
- CCC(CO)N(Cc1ccsc1)Cc1ccccc1C#N (centres undefined) : 3.282%
- Cc1ccsc1C(=O)NC(C)c1ccc2c(c1)CCC(=O)N2 (centres undefined) : -1.822%
- [H][C@]12CC[C@]([H])(CN(C(=O)Cc3ccncc3)C1)N(Cc1ccccc1)C2=O : -2.566%
- O=C(NCCCOCC1CC1)Nc1ccc(F)cc1 : -27.02%
- O=C(O)c1ccccc1-c1ccc(CN2CCC(CO)C2)cn1 (centres undefined) : -14.48%
- O=C(O)C(F)(F)F.[H][C@@]12CN(C(=O)Cc3cccs3)C[C@]1([H])OCCN2C(C)C : 2.297%
- Cc1cnn(CC2CCCN2C(=O)c2ccc3[nH]c(=O)[nH]c3c2)c1 (centres undefined) : -7.709%
- Cc1nnc(NCc2ccccc2Cl)c(C#N)c1C : -14.7%
- COCC(=O)N1CCCC(C(=O)N(C)CCn2ccnc2C)C1 (centres undefined) : -21.2%
- O=C(C1CN(c2ncc(F)cn2)CC12CCOCC2)N1CC=CC1.O=C(O)C(F)(F)F (centres undefined) : -5.809%
- c1ccc2c(N3CCCC3Cn3cccn3)ncnc2c1 (centres undefined) : 21.38%
- CC(NC1CCN(C(=O)C2CCCCC2)CC1)c1nccs1 (centres undefined) : -1.166%
- O=C(NCCCn1cncn1)N1CCC(N2CCCCC2)CC1 : 5.728%
- CCN(C(=O)CN(CC(N)=O)C(C)C)C1=CCCC1 : 10.87%
- Cc1nc(NC(=O)c2cccnc2N2CCOCC2)sc1C : -2.737%
- CN(C)CC1CSCCCN1C(=O)c1ccc(-n2cccc2)cc1 (centres undefined) : -1.657%
- Cc1ccc2c(c1)CCC2NCc1c(C)nn(C)c1N1CCOCC1.Cl (centres undefined) : 8.761%
- O=C(CN1CCC(c2nnc(C(F)(F)F)o2)CC1)Nc1cccc(Cl)c1 : 3.373%
- O=C(O)C(F)(F)F.O=C(c1ccncc1)N1CCOC2(COCCN(c3cncnc3)C2)C1 (centres undefined) : -14.28%
- CCn1c(C)nnc1SCCNc1cc(N2CCOCC2)ncn1 : -20.97%
- CN(C)Cc1ccc(C2CCCCN2C(=O)c2cc(C3CC3)n[nH]2)cc1 (centres undefined) : -5.492%
- CNC(=O)C1Cn2ccnc2C2(CCN(Cc3ccncc3)CC2)O1.O=C(O)C(F)(F)F.O=C(O)C(F)(F)F.O=C(O)C(F)(F)F (centres undefined) : 2.163% and -16.32%
- CNS(=O)(=O)c1ccc(CNC(=O)c2cccc(C)n2)cc1 : -29.61%

Repeated from the top, 7 entries:

- CC(=O)N1Cc2ccccc2C[C@H]1C(=O)Nc1ccccn1 : 0.4301%
- Cc1ncsc1CCC(=O)NC1CCN(Cc2cccs2)CC1 : 14.22%
- CC(Cn1cccn1)NCc1csc(-c2ccccc2F)n1 (centres undefined) : 38.4%
- COC(=O)CN(C(=O)c1cccc(F)c1Cl)c1cccc(C)n1 : -14.96%
- CC(C)=CCS(=O)(=O)Cc1nc(C(C)C)no1 : 23.96%
- CN(C)C1(CNc2ncc(Br)cn2)CCOCC1 : 16.15%
- COCc1n[nH]c2c1CN(C(=O)c1ccncc1)C2.O=C(O)C(F)(F)F : 2.841%